Experimental data: PMC4863600
Results are given in words; binding and its absence hold for the method and conditions named. Binding seen in cells or lysates may run through a third protein. Some results given as binding are weak or reduced against the parent protein; the word gives no strength. Tags and fused reporters may be left off the sequences shown.

T1: GyrA::SPA protein (D. radiodurans) (UniProt Q9RT53)
T1 sequence: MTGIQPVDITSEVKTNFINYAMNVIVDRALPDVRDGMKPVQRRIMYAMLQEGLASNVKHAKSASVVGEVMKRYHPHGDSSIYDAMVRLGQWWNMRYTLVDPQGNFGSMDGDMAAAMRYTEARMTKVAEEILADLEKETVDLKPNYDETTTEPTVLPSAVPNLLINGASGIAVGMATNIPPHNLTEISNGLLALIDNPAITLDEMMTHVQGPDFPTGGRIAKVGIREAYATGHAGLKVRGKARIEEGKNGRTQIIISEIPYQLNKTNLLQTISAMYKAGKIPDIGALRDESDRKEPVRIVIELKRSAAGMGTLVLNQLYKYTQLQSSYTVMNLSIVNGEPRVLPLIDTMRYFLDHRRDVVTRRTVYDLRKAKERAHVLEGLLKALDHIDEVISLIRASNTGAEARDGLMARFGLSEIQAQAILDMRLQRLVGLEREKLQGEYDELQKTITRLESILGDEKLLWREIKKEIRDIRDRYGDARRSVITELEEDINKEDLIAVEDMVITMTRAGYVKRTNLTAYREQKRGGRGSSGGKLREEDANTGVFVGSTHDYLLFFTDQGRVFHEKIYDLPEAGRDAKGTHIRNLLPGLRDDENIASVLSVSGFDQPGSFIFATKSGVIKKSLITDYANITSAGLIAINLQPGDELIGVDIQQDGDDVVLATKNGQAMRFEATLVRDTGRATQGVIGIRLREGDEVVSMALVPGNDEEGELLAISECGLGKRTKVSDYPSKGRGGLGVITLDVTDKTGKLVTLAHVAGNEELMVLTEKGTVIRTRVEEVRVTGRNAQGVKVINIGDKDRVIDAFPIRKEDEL

T2: PprA::HA fusion protein (D. radiodurans) (UniProt O32504)
T2 sequence: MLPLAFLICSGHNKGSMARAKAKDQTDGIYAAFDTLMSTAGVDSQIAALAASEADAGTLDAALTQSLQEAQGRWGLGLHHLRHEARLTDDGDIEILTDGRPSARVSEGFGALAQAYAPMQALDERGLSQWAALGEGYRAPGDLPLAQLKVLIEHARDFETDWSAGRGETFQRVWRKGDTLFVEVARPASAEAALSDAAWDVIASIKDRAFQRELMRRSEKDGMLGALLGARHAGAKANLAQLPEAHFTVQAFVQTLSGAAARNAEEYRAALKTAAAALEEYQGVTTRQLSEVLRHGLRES


Key:
[1] = target: T1, GyrA::SPA protein (D. radiodurans); experiment: co-IP; D. radiodurans GY14697 (pprA::HA gyrA::SPA) exposed to 3.8 kGy gamma radiation and grown 110 min, fixed with 2% formaldehyde; anti-HA immunoprecipitation with anti-FLAG blot, and anti-FLAG immunoprecipitation with anti-HA blot
[2] = target: T2, PprA::HA fusion protein (D. radiodurans); experiment: as above
[3] = target: T2, PprA::HA fusion protein (D. radiodurans); experiment: co-IP; as a2 but nonirradiated D. radiodurans GY14697 (pprA::HA gyrA::SPA) cells, in which PprA::HA is at its basal level

Binder	binding [1]	binding [2]	binding [3]
PprA::HA fusion protein (protein, UniProt O32504 1-300) MLPLAFLICSGHNKGSMARAKAKDQTDGIYAAFDTLMSTAGVDSQIAALAASEADAGTLDAALTQSLQEAQGRWGLGLHHLRHEARLTDDGDIEILTDGRPSARVSEGFGALAQAYAPMQALDERGLSQWAALGEGYRAPGDLPLAQLKVLIEHARDFETDWSAGRGETFQRVWRKGDTLFVEVARPASAEAALSDAAWDVIASIKDRAFQRELMRRSEKDGMLGALLGARHAGAKANLAQLPEAHFTVQAFVQTLSGAAARNAEEYRAALKTAAAALEEYQGVTTRQLSEVLRHGLRES	binds	–	–
GyrA::SPA protein (protein, UniProt Q9RT53 1-812) MTGIQPVDITSEVKTNFINYAMNVIVDRALPDVRDGMKPVQRRIMYAMLQEGLASNVKHAKSASVVGEVMKRYHPHGDSSIYDAMVRLGQWWNMRYTLVDPQGNFGSMDGDMAAAMRYTEARMTKVAEEILADLEKETVDLKPNYDETTTEPTVLPSAVPNLLINGASGIAVGMATNIPPHNLTEISNGLLALIDNPAITLDEMMTHVQGPDFPTGGRIAKVGIREAYATGHAGLKVRGKARIEEGKNGRTQIIISEIPYQLNKTNLLQTISAMYKAGKIPDIGALRDESDRKEPVRIVIELKRSAAGMGTLVLNQLYKYTQLQSSYTVMNLSIVNGEPRVLPLIDTMRYFLDHRRDVVTRRTVYDLRKAKERAHVLEGLLKALDHIDEVISLIRASNTGAEARDGLMARFGLSEIQAQAILDMRLQRLVGLEREKLQGEYDELQKTITRLESILGDEKLLWREIKKEIRDIRDRYGDARRSVITELEEDINKEDLIAVEDMVITMTRAGYVKRTNLTAYREQKRGGRGSSGGKLREEDANTGVFVGSTHDYLLFFTDQGRVFHEKIYDLPEAGRDAKGTHIRNLLPGLRDDENIASVLSVSGFDQPGSFIFATKSGVIKKSLITDYANITSAGLIAINLQPGDELIGVDIQQDGDDVVLATKNGQAMRFEATLVRDTGRATQGVIGIRLREGDEVVSMALVPGNDEEGELLAISECGLGKRTKVSDYPSKGRGGLGVITLDVTDKTGKLVTLAHVAGNEELMVLTEKGTVIRTRVEEVRVTGRNAQGVKVINIGDKDRVIDAFPIRKEDEL	–	binds	no binding (condition: nonirradiated cells)
